Source: the supplement of paper PMC10849652
Some of the results follow.

Sequences of proteins named here, by UniProt entry; tags and fusion partners are left off. A change or cut given only in a name is not applied to a line headed by its entry.
UniProt Q5JS54: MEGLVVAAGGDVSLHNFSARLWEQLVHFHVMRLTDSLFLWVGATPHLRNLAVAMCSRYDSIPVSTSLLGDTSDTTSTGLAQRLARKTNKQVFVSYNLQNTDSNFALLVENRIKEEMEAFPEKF
UniProt P25789: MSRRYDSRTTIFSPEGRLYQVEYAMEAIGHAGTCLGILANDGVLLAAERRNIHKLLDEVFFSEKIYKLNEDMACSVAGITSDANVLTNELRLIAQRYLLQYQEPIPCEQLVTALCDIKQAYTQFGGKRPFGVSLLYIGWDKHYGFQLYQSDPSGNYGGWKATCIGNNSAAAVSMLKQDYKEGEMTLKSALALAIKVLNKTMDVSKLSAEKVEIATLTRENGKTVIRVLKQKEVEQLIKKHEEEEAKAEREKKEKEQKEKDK
UniProt Q5THK1: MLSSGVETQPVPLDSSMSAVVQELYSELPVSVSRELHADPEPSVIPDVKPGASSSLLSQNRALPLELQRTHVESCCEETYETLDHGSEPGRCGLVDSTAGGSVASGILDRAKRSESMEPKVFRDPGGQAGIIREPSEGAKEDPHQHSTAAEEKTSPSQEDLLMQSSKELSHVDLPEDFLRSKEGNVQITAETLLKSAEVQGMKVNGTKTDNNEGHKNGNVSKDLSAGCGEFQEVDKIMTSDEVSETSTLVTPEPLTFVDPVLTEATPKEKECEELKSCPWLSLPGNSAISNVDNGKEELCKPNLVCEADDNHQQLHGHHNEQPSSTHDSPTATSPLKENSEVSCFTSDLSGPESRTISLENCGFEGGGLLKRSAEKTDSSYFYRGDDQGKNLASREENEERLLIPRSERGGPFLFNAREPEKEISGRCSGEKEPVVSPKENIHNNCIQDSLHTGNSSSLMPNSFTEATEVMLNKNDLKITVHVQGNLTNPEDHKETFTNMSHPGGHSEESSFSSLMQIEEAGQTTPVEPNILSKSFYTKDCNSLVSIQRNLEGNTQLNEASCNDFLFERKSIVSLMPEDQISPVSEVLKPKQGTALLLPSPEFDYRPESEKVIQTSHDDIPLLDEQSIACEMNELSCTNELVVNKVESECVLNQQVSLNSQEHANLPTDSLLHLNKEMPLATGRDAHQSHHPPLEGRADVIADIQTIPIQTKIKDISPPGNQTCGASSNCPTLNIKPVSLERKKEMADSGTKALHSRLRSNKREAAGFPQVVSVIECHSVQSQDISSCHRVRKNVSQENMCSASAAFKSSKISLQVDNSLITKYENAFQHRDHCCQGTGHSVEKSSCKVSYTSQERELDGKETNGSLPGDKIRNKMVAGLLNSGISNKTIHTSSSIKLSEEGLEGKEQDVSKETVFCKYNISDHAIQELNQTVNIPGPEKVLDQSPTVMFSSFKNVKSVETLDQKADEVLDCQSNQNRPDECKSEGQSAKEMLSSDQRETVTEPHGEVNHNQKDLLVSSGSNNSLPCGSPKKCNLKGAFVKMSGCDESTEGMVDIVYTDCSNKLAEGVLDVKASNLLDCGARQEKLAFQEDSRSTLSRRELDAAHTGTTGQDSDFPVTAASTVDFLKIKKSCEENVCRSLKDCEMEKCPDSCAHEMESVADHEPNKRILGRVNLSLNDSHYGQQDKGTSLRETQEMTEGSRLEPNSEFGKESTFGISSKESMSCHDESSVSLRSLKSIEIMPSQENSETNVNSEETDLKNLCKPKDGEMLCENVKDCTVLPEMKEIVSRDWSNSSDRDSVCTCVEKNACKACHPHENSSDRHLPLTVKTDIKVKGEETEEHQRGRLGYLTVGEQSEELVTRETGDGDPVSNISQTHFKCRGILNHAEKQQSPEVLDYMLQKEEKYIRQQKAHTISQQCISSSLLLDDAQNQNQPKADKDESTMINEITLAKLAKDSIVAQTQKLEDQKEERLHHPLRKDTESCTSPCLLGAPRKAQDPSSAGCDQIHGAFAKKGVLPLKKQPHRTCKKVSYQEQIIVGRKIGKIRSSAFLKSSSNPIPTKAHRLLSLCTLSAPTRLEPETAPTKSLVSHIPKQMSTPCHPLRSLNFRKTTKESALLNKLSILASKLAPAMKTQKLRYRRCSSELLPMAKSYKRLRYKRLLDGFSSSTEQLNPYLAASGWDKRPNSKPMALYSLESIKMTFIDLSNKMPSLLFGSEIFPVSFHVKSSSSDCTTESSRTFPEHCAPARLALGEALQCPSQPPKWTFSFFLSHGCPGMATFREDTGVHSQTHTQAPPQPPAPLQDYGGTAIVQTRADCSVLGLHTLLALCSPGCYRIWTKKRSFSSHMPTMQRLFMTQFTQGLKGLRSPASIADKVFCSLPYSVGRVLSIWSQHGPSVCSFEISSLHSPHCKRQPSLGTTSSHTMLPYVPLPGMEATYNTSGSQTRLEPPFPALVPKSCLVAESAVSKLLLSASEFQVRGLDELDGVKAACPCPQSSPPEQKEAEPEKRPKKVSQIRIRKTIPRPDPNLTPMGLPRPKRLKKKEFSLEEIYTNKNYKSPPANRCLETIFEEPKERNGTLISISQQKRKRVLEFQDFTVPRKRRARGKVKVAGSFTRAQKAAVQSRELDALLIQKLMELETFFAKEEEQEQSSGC
UniProt Q9UNM6: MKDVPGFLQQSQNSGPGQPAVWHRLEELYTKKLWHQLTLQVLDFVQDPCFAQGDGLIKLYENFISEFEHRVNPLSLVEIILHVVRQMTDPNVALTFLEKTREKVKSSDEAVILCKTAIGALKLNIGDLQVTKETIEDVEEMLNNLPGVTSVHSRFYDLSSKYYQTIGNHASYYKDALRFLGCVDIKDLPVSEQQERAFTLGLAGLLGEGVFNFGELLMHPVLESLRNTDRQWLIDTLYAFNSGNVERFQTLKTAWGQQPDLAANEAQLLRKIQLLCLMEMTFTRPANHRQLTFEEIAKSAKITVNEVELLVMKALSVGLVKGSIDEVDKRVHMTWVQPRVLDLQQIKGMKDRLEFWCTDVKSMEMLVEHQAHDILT
UniProt Q13308: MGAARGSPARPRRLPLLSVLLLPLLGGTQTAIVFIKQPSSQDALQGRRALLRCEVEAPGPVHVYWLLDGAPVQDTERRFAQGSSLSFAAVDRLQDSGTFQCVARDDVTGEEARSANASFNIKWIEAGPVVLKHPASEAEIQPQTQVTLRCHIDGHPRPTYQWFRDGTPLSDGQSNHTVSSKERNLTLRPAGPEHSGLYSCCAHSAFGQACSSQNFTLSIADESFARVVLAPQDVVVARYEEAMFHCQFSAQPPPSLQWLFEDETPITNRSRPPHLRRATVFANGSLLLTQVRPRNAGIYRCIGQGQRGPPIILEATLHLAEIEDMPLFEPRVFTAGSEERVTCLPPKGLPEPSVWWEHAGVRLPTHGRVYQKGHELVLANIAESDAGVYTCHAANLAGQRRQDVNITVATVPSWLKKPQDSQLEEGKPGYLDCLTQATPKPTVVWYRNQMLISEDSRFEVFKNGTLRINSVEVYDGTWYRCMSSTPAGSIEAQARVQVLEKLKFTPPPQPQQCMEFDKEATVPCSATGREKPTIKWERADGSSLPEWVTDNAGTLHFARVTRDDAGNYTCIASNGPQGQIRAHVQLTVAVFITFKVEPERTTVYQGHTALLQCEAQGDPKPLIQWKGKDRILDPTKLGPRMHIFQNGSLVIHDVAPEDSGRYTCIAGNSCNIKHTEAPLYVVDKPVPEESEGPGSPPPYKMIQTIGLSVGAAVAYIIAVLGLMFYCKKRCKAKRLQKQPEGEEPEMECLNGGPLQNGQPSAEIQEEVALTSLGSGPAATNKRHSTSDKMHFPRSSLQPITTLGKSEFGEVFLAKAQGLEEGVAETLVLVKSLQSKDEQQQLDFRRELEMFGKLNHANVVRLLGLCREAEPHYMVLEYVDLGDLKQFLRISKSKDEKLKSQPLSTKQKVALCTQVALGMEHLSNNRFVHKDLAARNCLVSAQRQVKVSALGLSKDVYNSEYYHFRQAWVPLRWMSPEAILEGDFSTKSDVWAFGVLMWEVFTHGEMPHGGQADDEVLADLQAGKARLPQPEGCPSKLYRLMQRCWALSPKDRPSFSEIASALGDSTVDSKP
UniProt Q6GMV3: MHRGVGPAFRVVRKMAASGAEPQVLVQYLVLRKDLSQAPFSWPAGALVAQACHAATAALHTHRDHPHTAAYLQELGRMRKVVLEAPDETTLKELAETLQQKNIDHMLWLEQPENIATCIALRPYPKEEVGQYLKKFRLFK
UniProt P28065: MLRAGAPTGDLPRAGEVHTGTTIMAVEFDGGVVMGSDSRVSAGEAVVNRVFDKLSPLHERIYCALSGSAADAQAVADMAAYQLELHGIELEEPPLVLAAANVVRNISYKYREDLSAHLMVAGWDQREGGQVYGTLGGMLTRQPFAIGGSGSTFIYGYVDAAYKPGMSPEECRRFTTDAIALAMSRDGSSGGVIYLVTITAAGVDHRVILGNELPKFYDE
UniProt O00231, whole entry, looked up: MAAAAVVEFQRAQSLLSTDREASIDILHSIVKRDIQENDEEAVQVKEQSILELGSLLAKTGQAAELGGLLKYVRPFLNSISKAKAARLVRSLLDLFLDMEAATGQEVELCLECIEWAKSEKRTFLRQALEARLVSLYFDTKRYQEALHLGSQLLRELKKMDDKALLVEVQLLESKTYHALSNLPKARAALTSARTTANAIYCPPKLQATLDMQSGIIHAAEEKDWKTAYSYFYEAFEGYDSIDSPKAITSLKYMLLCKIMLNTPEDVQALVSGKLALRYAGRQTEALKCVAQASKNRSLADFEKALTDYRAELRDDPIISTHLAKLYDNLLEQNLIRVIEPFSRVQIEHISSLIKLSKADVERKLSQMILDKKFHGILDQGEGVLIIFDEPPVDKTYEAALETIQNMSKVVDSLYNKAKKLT
UniProt P25788: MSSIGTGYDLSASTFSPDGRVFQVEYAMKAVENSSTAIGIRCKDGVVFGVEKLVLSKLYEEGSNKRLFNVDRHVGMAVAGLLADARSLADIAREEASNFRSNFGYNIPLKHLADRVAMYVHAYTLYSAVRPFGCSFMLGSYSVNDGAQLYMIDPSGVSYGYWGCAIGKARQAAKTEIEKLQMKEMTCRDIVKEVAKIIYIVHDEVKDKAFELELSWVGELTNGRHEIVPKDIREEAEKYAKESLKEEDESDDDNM
UniProt O75475: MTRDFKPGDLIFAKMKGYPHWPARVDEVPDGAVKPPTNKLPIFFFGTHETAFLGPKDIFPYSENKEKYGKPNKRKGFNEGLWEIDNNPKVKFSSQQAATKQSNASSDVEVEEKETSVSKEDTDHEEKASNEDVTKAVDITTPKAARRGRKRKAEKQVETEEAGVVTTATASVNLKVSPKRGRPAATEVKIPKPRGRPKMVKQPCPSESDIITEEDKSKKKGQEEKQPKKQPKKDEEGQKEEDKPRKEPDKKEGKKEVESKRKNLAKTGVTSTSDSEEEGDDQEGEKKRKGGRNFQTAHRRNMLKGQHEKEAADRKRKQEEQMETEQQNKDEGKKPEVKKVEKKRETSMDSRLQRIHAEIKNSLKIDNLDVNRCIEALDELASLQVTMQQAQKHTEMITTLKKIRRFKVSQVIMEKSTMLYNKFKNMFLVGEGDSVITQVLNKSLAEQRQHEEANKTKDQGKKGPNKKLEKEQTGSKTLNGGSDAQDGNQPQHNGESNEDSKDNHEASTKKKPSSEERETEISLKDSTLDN
UniProt Q16401: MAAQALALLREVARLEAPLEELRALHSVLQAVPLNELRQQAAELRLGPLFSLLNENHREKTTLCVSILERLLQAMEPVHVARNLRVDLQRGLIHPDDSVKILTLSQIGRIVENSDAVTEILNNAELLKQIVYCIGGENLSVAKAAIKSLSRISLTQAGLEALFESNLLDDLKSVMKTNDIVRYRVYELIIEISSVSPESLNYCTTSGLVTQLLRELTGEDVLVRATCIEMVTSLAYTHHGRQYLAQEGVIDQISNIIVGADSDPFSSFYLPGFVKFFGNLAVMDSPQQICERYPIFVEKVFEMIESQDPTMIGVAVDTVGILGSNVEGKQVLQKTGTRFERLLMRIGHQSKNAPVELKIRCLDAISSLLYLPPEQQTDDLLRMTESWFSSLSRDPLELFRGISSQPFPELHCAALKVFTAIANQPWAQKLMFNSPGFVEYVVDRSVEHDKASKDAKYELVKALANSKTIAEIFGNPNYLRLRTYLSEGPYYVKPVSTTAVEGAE
UniProt Q93096: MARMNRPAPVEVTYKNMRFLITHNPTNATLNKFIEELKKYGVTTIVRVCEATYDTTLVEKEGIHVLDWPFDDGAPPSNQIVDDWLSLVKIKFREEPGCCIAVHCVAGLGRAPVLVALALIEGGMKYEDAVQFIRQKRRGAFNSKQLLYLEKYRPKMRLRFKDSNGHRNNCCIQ
UniProt Q9Y617: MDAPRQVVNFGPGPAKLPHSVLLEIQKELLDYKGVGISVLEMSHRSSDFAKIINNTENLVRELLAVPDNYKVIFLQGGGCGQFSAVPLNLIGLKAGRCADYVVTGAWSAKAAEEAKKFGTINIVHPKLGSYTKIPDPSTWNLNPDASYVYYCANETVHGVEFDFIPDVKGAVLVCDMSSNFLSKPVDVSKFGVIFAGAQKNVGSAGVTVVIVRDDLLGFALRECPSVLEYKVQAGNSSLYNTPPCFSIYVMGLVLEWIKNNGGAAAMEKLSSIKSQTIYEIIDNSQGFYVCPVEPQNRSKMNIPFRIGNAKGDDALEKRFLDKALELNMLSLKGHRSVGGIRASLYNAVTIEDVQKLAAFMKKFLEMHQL

compound: O=C(O)c1ccc2c(c1)nc(Nc1cccc(Cl)c1)c1ccncc12 [silmitasertib]; assay: log2 fold change, soluble protein after heating vs DMSO (PISA); higher = thermal stabilisation; K562 lysate, 10 uM; active = over 0.2 and 3.5 SD of the protein, either way, in both replicates (recomputed)
Summary of the method: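 Pellets of K562 cells were dounce-homogenised in PBS pH 7.4 with 1 mM MgCl2, and the crude extract was held at 1 mg/mL protein for a 30 min treatment with 10 μM compound. Aliquots were heated for 3 min over 48°C-58°C and pooled before NP-40 was added to 0.5% at 4°C. The supernatant from 21,000xg for 90 min was quantified by TMTpro 16plex LC-MS/MS with channel sums equalised. Values are reported from duplicates as log-two fold change in thermal stability relative to solvent controls.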

log2 fold change, inactive:
PSMG4 isoform 2 (UniProt Q5JS54) -0.031
PSMA4 (UniProt P25789) -0.011
PTTG1 (UniProt O95997) 0.014
PSMD7 (UniProt P51665) 0.004
PUSL1 (UniProt Q8N0Z8) -0.004
PTGS1 isoform 6 (UniProt P23219) -0.033
PRR14L (UniProt Q5THK1) 0.021
PSME3 isoform 2 (UniProt P61289) -0.004
PSMD13 (UniProt Q9UNM6) 0.017
PTK7 isoform 6 (UniProt Q13308) -0.032
PTPN7 isoform 3 (UniProt P35236) 0.01
PRRC2B (UniProt Q5JSZ5) 0.027
PTRHD1 (UniProt Q6GMV3) 0.022
PSMB9 (UniProt P28065) 0.008
PTCD3 (UniProt Q96EY7) 0.039
PSMD6 isoform 4 (UniProt Q15008) -0.001
PSMD11 (UniProt O00231) 0.006
PSMA3 (UniProt P25788) 0
PSIP1 (UniProt O75475) -0.019
PSMD5 (UniProt Q16401) -0.004
PTP4A1 (UniProt Q93096) -0.003
PSAT1 (UniProt Q9Y617) 0.006

As a working copy, some entries already given:
log2 fold change, inactive:
PRRC2B (UniProt Q5JSZ5) 0.027
PTRHD1 (UniProt Q6GMV3) 0.022
